From paper PMC3387016
No constants are given. Whether binding was seen depends on the method and setting. Binding seen in cells or lysates may run through a third protein. Some results given as binding are weak or reduced against the parent protein; the word gives no strength.

Sequences of proteins named here, by UniProt entry; tags and fusion partners are left off. A change or cut given only in a name is not applied to a line headed by its entry. A line that says so, or that is headed by a name, gives the form on record, which may keep a tag or linker.
G551D-CFTR (Gly to Asp at position 551) (P13569-1, form named): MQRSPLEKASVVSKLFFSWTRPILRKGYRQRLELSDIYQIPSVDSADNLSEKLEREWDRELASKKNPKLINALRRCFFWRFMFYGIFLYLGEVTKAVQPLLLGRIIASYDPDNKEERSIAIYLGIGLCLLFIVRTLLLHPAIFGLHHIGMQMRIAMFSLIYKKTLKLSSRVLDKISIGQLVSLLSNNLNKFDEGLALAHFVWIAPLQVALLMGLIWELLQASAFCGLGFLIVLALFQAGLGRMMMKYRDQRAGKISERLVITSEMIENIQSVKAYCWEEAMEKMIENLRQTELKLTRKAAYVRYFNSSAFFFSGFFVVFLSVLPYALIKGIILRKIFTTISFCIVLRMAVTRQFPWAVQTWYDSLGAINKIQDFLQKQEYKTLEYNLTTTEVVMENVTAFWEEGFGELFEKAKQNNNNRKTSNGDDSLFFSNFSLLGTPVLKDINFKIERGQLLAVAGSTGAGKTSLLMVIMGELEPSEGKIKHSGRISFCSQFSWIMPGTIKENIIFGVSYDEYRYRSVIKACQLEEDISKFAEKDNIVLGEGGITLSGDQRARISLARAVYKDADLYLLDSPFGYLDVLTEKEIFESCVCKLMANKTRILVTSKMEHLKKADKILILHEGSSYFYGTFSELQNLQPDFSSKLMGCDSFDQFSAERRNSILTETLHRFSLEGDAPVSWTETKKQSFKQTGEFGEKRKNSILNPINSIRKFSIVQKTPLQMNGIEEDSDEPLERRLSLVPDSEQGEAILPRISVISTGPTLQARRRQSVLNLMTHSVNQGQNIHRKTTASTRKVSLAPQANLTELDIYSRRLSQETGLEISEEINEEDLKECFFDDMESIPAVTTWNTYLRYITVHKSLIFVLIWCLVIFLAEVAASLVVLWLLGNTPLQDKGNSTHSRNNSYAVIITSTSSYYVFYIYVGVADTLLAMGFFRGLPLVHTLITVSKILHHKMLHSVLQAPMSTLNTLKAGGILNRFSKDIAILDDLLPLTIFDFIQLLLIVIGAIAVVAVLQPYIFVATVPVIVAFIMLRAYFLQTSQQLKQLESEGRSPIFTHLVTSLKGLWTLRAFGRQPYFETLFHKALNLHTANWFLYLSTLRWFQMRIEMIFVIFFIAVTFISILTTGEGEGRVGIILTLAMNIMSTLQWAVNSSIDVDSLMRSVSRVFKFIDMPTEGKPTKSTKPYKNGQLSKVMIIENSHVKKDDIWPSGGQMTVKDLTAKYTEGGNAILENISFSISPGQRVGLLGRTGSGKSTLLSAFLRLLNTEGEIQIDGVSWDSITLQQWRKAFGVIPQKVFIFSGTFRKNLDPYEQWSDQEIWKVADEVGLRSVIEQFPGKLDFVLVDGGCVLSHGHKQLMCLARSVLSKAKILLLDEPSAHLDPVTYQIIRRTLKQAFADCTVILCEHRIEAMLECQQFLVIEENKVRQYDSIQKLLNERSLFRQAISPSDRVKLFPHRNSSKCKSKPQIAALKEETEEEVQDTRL

Biological target: T1, Calumenin (human (endogenous in HeLa)) (UniProt O43852)
T1 sequence: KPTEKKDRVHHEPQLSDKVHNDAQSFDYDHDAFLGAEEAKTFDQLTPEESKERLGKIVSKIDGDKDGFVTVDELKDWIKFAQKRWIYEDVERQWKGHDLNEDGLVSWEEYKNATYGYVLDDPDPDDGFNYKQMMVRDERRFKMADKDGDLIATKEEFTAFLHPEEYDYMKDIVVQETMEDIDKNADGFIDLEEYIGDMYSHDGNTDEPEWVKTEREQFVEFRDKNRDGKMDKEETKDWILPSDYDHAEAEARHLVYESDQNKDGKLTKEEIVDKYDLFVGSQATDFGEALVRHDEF
Assay: co-IP; reverse co-immunoprecipitation (not shown): anti-calumenin antibody on Protein G magnetic beads, whole cell lysate in RIPA buffer; CFTR detected (mature 170 kDa form)

Substance	binding
G551D-CFTR (Gly to Asp at position 551) (from UniProt P13569-1 1-1480)	binds
human wild type CFTR (cystic fibrosis transmembrane conductance regulator) (from UniProt P13569-1 1-1480)	binds
